# Test results reported in publication PMC3213134, “A Non-Motor Microtubule Binding Site Is Essential for the High Processivity and Mitotic Function of Kinesin-8 Kif18A” (PLoS ONE, 2011).
# These are yes or no findings as the source states them, for the method shown. Binding seen in cells or lysates may run through a third protein. Some binding calls cover weakened binding; strength is not graded here. Tags and fused reporters may be left off the sequences shown.
# B1: His-Kif18A^1-777-GFP (domain or fragment, human, UniProt Q8NI77 1-777, looked up)
# chain: MSVTEEDLCHHMKVVVRVRPENTKEKAAGFHKVVHVVDKHILVFDPKQEEVSFFHGKKTTNQNVIKKQNKDLKFVFDAVFDETSTQSEVFEHTTKPILRSFLNGYNCTVLAYGATGAGKTHTMLGSADEPGVMYLTMLHLYKCMDEIKEEKICSTAVSYLEVYNEQIRDLLVNSGPLAVREDTQKGVVVHGLTLHQPKSSEEILHLLDNGNKNRTQHPTDMNATSSRSHAVFQIYLRQQDKTASINQNVRIAKMSLIDLAGSERASTSGAKGTRFVEGTNINRSLLALGNVINALADSKRKNQHIPYRNSKLTRLLKDSLGGNCQTIMIAAVSPSSVFYDDTYNTLKYANRAKDIKSSLKSNVLNVNNHITQYVKICNEQKAEILLLKEKLKAYEEQKAFTNENDQAKLMISNPQEKEIERFQEILNCLFQNREEIRQEYLKLEMLLKENELKSFYQQQCHKQIEMMCSEDKVEKATGKRDHRLAMLKTRRSYLEKRREEELKQFDENTNWLHRVEKEMGLLSQNGHIPKELKKDLHCHHLHLQNKDLKAQIRHMMDLACLQEQQHRQTEAVLNALLPTLRKQYCTLKEAGLSNAAFESDFKEIEHLVERKKVVVWADQTAEQPKQNDLPGISVLMTFPQLGPVQPIPCCSSSGGTNLVKIPTEKRTRRKLMPSPLKGQHTLKSPPSQSVQLNDSLSKELQPIVYTPEDCRKAFQNPSTVTLMKPSSFTTSFQAISSNINSDNCLKMLCEVAIPHNRRKECGQEDLDSTFTICEDIK
# notes: not shown: His6, N-terminal, kept; GFP, C-terminal, kept
# Biological target: Kif18A^1-777, GFP- and Myc-tagged copies co-expressed in 293T cells (human) (UniProt Q8NI77)
# Experiment: co-IP; 293T cells co-expressing GFP- and Myc-tagged Kif18A^1-777; lysis buffer with 0.5% Triton-X100 and 300 mM NaCl; GFP antibodies on Protein G beads; blots probed with GFP and myc antibodies
binder,measurement,value
B1,binding,binds
